Results deposited as PubChem BioAssay AID652259 (Drosophila RNAi Screening Center, 2013).

- Purpose: 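Genome-wide hunt for genes that control Wingless pathway activity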 (primary screen)
- Cells: Drosophila clone 8 imaginal disc epithelial cells
- Reagents: long dsRNA against Drosophila genes
- Treatment: pathway stimulated by co-transfected Wingless expression plasmid
- Detection: 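Firefly luciferase from a tcf-site Wingless reporter, measured alongside co-transfected Renilla luciferase that tracks transfection; pathway stimulated by a Wingless plasmid; the firefly-to-Renilla ratio is not deposited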
- Reading the numbers: firefly reporter light: higher = more Wg reporter light, before normalisation; Renilla control light: higher = more transfected or surviving cells
- Call rule: 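Strong candidates differ from their plate mean by at least two out of four per-plate statistical tests; weak candidates meet just one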
- Calls: active = candidate regulator (raises or lowers reporter); inactive = not a candidate
The screen tested about 22,000 reagents; below is a random part of those with a known target gene and a result. In the full data, 233 (1.1%) were called active. 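Light values are raw, unnormalised plate reads; the ratio scores behind the reporter calls were not deposited.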 A number with no mark means an inactive call. The record does not give: the amount of reagent, the time to read-out, the dose of the treatment.

| target | amplicon | reporter change call, replicate 1 | firefly reporter light, replicate 1 | firefly reporter light, replicate 2 | Renilla control light, replicate 1 | Renilla control light, replicate 2 |
| --- | --- | --- | --- | --- | --- | --- |
| GNBP2 (GeneID 40033) | DRSC10404 | – | 4939 | – | 1864 | – |
| wtrw (GeneID 40931) | DRSC14241 | – | 4233 | – | 1381 | – |
| wtrw (GeneID 40931) | DRSC15278 | – | 13296 | – | 3265 | – |
| pasha (GeneID 43728) | DRSC15295 | – | 3766 | 5544 | 1460 | 2157 |
| CG10298 (GeneID 40779) | DRSC12522 | – | 10715 | – | 3872 | – |
| Klp68D (GeneID 39332) | DRSC11206 | – | 2961 | – | 1096 | – |
| Smr (GeneID 32225) | DRSC19495 | Wg reporter activity raised (active) | 3020 | 7409 | 240 | 544 |
| Smr (GeneID 32225) | DRSC20288 | Wg reporter activity raised | 26091 | – | 3472 | – |
| wam (GeneID 42755) | DRSC15171 | – | 18717 | – | 11189 | – |
| Ciao1 (GeneID 36655) | DRSC06170 | – | 12960 | – | 4765 | – |
| CG43897 (GeneID 39153) | DRSC10173 | – | 5897 | – | 2344 | – |
| CG43897 (GeneID 39153) | DRSC10965 | Wg reporter activity raised (active) | 11655 | – | 1472 | – |
| CG43897 (GeneID 39153) | DRSC10967 | – | 8550 | – | 3965 | – |
| CG43897 (GeneID 39153) | DRSC21583 | – | 1.01e6 | 9.68e5 | 1.54e5 | 72856 |
| Ssu72 (GeneID 32973) | DRSC19572 | – | 18933 | – | 11885 | – |
| frma (GeneID 31464) | DRSC18297 | – | 1314 | 5341 | 538 | 1547 |
| MFS10 (GeneID 32263) | DRSC19888 | – | 2476 | 8551 | 954 | 2224 |
| CG9447 (GeneID 35597) | DRSC05008 | – | 1643 | 6576 | 135 | 3392 |
| RnrS (GeneID 36280) | DRSC07533 | – | 7686 | – | 2499 | – |
| ImpE3 (GeneID 48239) | DRSC16716 | – | 12121 | – | 3480 | – |
| asun (GeneID 41971) | DRSC16733 | – | 3849 | 7170 | 1653 | 2881 |
| CG42789 (GeneID 10178793) | DRSC13793 | – | 3248 | – | 486 | – |
| CR42545 (GeneID 8674105) | DRSC03709 | – | 4232 | 7852 | 1323 | 2976 |
| Rabex-5 (GeneID 38144) | DRSC08628 | – | 16619 | – | 4305 | – |
| PpV (GeneID 31582) | DRSC18700 | – | 20567 | – | 8873 | – |
| ninaG (GeneID 41369) | DRSC16102 | – | 13590 | – | 3632 | – |
| CG4332 (GeneID 32267) | DRSC19890 | – | 2605 | 6614 | 827 | 1808 |
| CG15439 (GeneID 33651) | DRSC00453 | – | 3656 | – | 541 | – |
| CG13078 (GeneID 35251) | DRSC02182 | – | 2902 | 4870 | 672 | 1787 |
| alpha-Catr (GeneID 49713) | DRSC04669 | – | 2805 | 8858 | 613 | 2448 |
| CG8526 (GeneID 41208) | DRSC16438 | – | 18344 | – | 4908 | – |
| Msh6 (GeneID 39654) | DRSC10759 | – | 4145 | – | 2208 | – |
| CG14435 (GeneID 31628) | DRSC17928 | – | 26652 | – | 7558 | – |
| CG14075 (GeneID 40071) | DRSC10080 | – | 11018 | – | 3093 | – |
| Or67b (GeneID 39120) | DRSC11241 | – | 4544 | – | 3256 | – |
| CG5850 (GeneID 34327) | DRSC02905 | – | 7273 | – | 2504 | – |
| TTLL3B (GeneID 33946) | DRSC02133 | – | 1665 | 5190 | 763 | 2217 |
| CG43182 (GeneID 12798293) | DRSC17668 | – | 3094 | – | 1428 | – |

Next part (10 carried over from the part before).
| target | amplicon | reporter change call, replicate 1 | firefly reporter light, replicate 1 | firefly reporter light, replicate 2 | Renilla control light, replicate 1 | Renilla control light, replicate 2 |
| --- | --- | --- | --- | --- | --- | --- |
| CG13078 (GeneID 35251) | DRSC02182 | – | 2902 | 4870 | 672 | 1787 |
| alpha-Catr (GeneID 49713) | DRSC04669 | – | 2805 | 8858 | 613 | 2448 |
| CG8526 (GeneID 41208) | DRSC16438 | – | 18344 | – | 4908 | – |
| Msh6 (GeneID 39654) | DRSC10759 | – | 4145 | – | 2208 | – |
| CG14435 (GeneID 31628) | DRSC17928 | – | 26652 | – | 7558 | – |
| CG14075 (GeneID 40071) | DRSC10080 | – | 11018 | – | 3093 | – |
| Or67b (GeneID 39120) | DRSC11241 | – | 4544 | – | 3256 | – |
| CG5850 (GeneID 34327) | DRSC02905 | – | 7273 | – | 2504 | – |
| TTLL3B (GeneID 33946) | DRSC02133 | – | 1665 | 5190 | 763 | 2217 |
| CG43182 (GeneID 12798293) | DRSC17668 | – | 3094 | – | 1428 | – |
| Hr4 (GeneID 31162) | DRSC18495 | Wg reporter activity raised (active) | 30708 | – | 19520 | – |
| Hr4 (GeneID 31162) | DRSC18599 | – | 14167 | – | 8292 | – |
| Hr4 (GeneID 31162) | DRSC22269 | Wg reporter activity raised | 7.90e5 | 7.48e5 | 61730 | 60448 |
| Hr4 (GeneID 31162) | DRSC22677 | – | 1.32e6 | 1.24e6 | 1.63e5 | 44147 |
| dj-1beta (GeneID 43652) | DRSC14599 | – | 8778 | – | 2720 | – |
| ApepP (GeneID 35029) | DRSC01866 | – | 7494 | – | 3362 | – |
| CG2574 (GeneID 32190) | DRSC19862 | – | 25140 | – | 9628 | – |
| ttm50 (GeneID 31266) | DRSC18587 | – | 2427 | 8340 | 1392 | 2416 |
| Sgt1 (GeneID 40982) | DRSC16519 | – | 22551 | – | 4352 | – |
| CG10654 (GeneID 39428) | DRSC09767 | – | 6199 | – | 2275 | – |
| CG14218 (GeneID 32949) | DRSC19575 | – | 20833 | – | 10802 | – |
| CG7251 (GeneID 33791) | DRSC03039 | – | 6876 | – | 2860 | – |
| CG18449 (GeneID 35810) | DRSC06754 | – | 1851 | 10208 | 667 | 2709 |
| Erasp (GeneID 246448) | DRSC07111 | – | 14183 | – | 4089 | – |
| CG31861 (GeneID 318988) | DRSC21665 | – | 8.83e5 | 8.64e5 | 4.18e5 | 3.84e5 |
| CG12783 (GeneID 42019) | DRSC14538 | – | 10291 | – | 3434 | – |
| CG9004 (GeneID 38303) | DRSC08617 | – | 6324 | – | 3111 | – |
| Gdi (GeneID 34264) | DRSC03330 | – | 10470 | – | 4610 | – |
| CG15128 (GeneID 37263) | DRSC06550 | – | 5088 | – | 1558 | – |
| Ugt36E1 (GeneID 35139) | DRSC02599 | – | 5768 | – | 1497 | – |
| dan (GeneID 43023) | DRSC14406 | – | 1849 | 6905 | 704 | 1840 |
| dpr8 (GeneID 32387) | DRSC19406 | – | 14208 | – | 7497 | – |
| dpr8 (GeneID 32387) | DRSC19600 | – | 20688 | – | 9376 | – |
| dpr8 (GeneID 32387) | DRSC19938 | – | 19834 | – | 9286 | – |
| dpr8 (GeneID 32387) | DRSC19939 | – | 21910 | – | 9760 | – |
| Gp93 (GeneID 43354) | DRSC15827 | – | 2764 | 6458 | 1173 | 1381 |
| upd2 (GeneID 32805) | DRSC19969 | – | 24768 | 8.24e5 | 12947 | 3.99e5 |
| CG14418 (GeneID 31275) | DRSC18637 | – | 20003 | – | 9366 | – |
| CG31705 (GeneID 34577) | DRSC01991 | – | 3296 | – | 2049 | – |
| Nepl13 (GeneID 42699) | DRSC15632 | – | 16329 | – | 14700 | – |
| CG10395 (GeneID 35490) | DRSC04840 | – | 15344 | – | 3175 | – |
| pod1 (GeneID 31620) | DRSC18362 | – | 3483 | 11588 | 480 | 1671 |
| Gdap2 (GeneID 59173) | DRSC06789 | – | 3104 | 10247 | 1094 | 3577 |
| Gdap2 (GeneID 59173) | DRSC06790 | – | 3072 | 8825 | 700 | 3523 |
| COX8 (GeneID 40390) | DRSC11814 | – | 11296 | – | 2936 | – |
